# Source: the supplement of paper PMC6143611
# ± gives the uncertainty stated by the source. The list shows a part of the results. Part of the spread comes from offsets between plates or batches.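 At 6 dpf, larvae had a heat-shock-induced fluorescent stripe placed in rod outer segments; shedding distance, from stripe to outer segment tip, was measured in confocal stacks, roughly three fish per compound. Controls received 0.2% DMSO vehicle; compounds were flagged for ≥20% change versus same-week control and p < 0.001 (Dunnett test, mixed-effects models).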
# Test system: Danio rerio larva rod photoreceptor outer segment
# Assay: rod outer segment growth distance Dg, difference from same-week DMSO control mean; higher = more outer segment growth
# Settings: 20 µM; treatment time: 4 days (6-10 dpf)
row,Compound,rod outer segment growth distance Dg
1,C[C@]12C=CC(=O)C=C1CC[C@@H]1[C@@H]2C(=O)C[C@@]2(C)[C@H]1CC[C@]2(O)C(=O)CO [Prednisone],0.04 ± 0.2 um
2,O=C(NC[C@H]1CN(c2ccc(N3CCOCC3=O)cc2)C(=O)O1)c1ccc(Cl)s1 [Rivaroxaban],-0.85 ± 0.17 um
3,c1ccc(-c2nn3c(c2-c2ccnc4cc(OCCN5CCOCC5)ccc24)CCC3)nc1,-0.25 ± 0.14 um
4,CN1C(C(=O)Nc2ccccn2)=C(O)c2sc(Cl)cc2S1(=O)=O [Lornoxicam],1.08 ± 0.25 um
5,CC(=O)Nc1ccc(C(=O)Nc2ccccc2N)cc1 [CI994 (Tacedinaline)],-0.23 ± 0.18 um
6,O=C(C1CCCCC1)N1CC(=O)N2CCc3ccccc3C2C1 (stereo not given) [Praziquantel],0.45 ± 0.16 um
7,COc1cc(CCc2cc(NC(=O)c3ccc(N4CC(C)NC(C)C4)cc3)n[nH]2)cc(OC)c1 (stereo not given),-1.2 ± 0.2 um
8,CCCCC1C(=O)N(c2ccccc2)N(c2ccccc2)C1=O [Phenylbutazone],0.73 ± 0.16 um
9,C[C@@H](N)[C@H]1CC[C@H](C(=O)Nc2ccncc2)CC1,-0.26 ± 0.1 um
10,Cc1cnc(-c2cnc(NCCNc3ccc(C#N)cn3)nc2-c2ccc(Cl)cc2Cl)[nH]1,-0.88 ± 0.22 um
11,"O=C(CCCCCCC(=O)Nc1ccccc1)NO [Vorinostat (SAHA, MK0683)]",-0.95 ± 0.083 um
12,NC(=O)OCC(COC(N)=O)c1ccccc1 [Felbamate],1.83 ± 0.19 um
13,CCCCCCCCCCCCc1ccc(S(=O)(=O)Nc2nncs2)cc1,-1.3 ± 0.19 um
14,COc1ccc2c(c1)c(CC(=O)O)c(C)n2C(=O)c1ccc(Cl)cc1 [Indomethacin],-0.11 ± 0.26 um
15,CC(C(=O)O)c1cccc(Oc2ccccc2)c1 (stereo not given) [Fenoprofen Calcium],-0.47 ± 0.21 um

# Part of the list above, with tabs.
row	Compound	rod outer segment growth distance Dg
2	O=C(NC[C@H]1CN(c2ccc(N3CCOCC3=O)cc2)C(=O)O1)c1ccc(Cl)s1 [Rivaroxaban]	-0.85 ± 0.17 um
3	c1ccc(-c2nn3c(c2-c2ccnc4cc(OCCN5CCOCC5)ccc24)CCC3)nc1	-0.25 ± 0.14 um
